Reference: patent US12285470B2, “Trim proteins and galectins cooperate and codirect autophagy and are useful in the treatment of autophagy related diseases” (UNM RAINFOREST INNOVATIONS, priority 2016, dated 2025)
At least one compound was matched to its structure with a doubt left.

Test system: Mtb
Conditions: given 2 weeks following exposure to Mtb

SMILES: CO[C@H]1C[C@@H]2CC[C@@H](C)[C@@](O)(O2)C(=O)C(=O)N2CCCC[C@H]2C(=O)O[C@H]([C@H](C)C[C@@H]2CC[C@@H](O)[C@H](OC)C2)CC(=O)[C@H](C)/C=C(\C)[C@@H](O)[C@@H](OC)C(=O)[C@H](C)C[C@H](C)/C=C/C=C/C=C/1C [rapamycin]
- susceptibility to Mtb when given too early: more susceptible to Mtb
